From patent US20120195897A1
These are yes or no findings as the source states them, for the method shown. Some results given as binding are weak or reduced against the parent protein; the word gives no strength.

Sequences of proteins named here, by UniProt entry; tags and fusion partners are left off. Residues count along the entry.
UniProt P08069, residues 31-932: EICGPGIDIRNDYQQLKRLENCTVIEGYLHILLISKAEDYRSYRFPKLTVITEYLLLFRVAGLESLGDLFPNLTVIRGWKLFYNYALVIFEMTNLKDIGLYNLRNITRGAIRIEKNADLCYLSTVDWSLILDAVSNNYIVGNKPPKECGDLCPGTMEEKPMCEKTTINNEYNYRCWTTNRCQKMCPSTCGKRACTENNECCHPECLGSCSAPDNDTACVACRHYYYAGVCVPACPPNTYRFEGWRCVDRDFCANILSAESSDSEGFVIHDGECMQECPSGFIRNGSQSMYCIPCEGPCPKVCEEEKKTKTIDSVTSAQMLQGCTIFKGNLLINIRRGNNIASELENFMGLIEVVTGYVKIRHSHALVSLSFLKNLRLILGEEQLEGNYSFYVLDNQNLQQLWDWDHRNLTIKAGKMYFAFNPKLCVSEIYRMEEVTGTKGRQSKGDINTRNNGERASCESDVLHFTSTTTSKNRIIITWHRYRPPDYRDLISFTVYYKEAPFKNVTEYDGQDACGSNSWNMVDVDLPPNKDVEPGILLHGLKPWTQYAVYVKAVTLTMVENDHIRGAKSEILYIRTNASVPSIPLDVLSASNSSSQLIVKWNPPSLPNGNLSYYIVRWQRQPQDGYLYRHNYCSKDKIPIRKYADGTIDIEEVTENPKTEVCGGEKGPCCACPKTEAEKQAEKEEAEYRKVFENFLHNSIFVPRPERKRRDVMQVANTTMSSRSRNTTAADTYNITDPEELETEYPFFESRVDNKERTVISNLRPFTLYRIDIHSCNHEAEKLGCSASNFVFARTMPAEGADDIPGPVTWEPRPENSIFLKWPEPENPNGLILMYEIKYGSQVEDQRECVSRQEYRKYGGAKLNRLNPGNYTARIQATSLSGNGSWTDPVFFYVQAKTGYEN
UniProt P05019, residues 49-118: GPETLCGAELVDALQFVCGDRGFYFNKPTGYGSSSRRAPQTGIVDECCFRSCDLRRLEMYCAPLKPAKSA

B1: m535 (VHH)
VHH: QVQLVQSGGGLVQPGGSLRLSCAASSFSFSDYEMSWVRQAPGKGLEWVAHINSDGVIQYADSVKGRFTISRDNSKNTLYLQMNTLRAEDTATYYCVRVAVPGKRYFQYWGQGTTVTVSS
B2: m536 (VHH)
VHH: QVQLVQSGGGLVQPGGSLRLSCAASYYGQSFDSDSVVFMSWVRQAPGKGLEWISSMSNTGTYIDYADSVKGRFTISRDNSKNTLYLQMNTLRAEDTATYYCVKEWDRGLRRLQHWGQGTVVTVSS
B3: m537 (VHH)
VHH: QVQLVQSGGGLVQPGGSLRLSCAASNYSQQTYSAPITFMSWVRQAPGQGLEWVSSTSWNGGTTDYADSVKGRFTISRDNSKNTLYLQMNTLRAEDTAMYYCVTDTSGWRYFQDWGQGTLVTVSS
B4: m636 (VHH)
VHH: QVQLVQSGGGLVQPGGSLRLSCAASYYSLQHDNFPYTFMSWVRQAPGQRLEWVSGISGSGGSTYYADSVKGRFTISRDNSKNTLYLQMNTLRAEDTAMYYCARIRWLQDLDYWGQGTLVTVSS
B5: m546 (VHH)
VHH: QVQLVQSGGGLVQPGGSLRLSCAASYYSQQYNSYPITFMSWVRQAPGQRLEWVASINQDGSQIDYAGSVKGRFTISRDNSKNTLYLQMNTLRAEDTATYYCAVDLRSGARNFQHWGQGTLVTVSS

How the values were obtained:
[1] = target: human insulin-like growth factor 1 receptor (IGF-1R) (human) (UniProt P08069); assay: ELISA (Example 2)
[2] = target: human insulin-like growth factor 1 receptor (IGF-1R) (human) (UniProt P08069); assay: ELISA
[3] = target: insulin-like growth factor 1 (IGF-1) (UniProt P05019); assay: ELISA

Row | Binder | binding [1] | binding [2] | binding [3]
1 | B1 | binds | binds | 
2 | B2 | binds | binds | 
3 | B3 | binds | binds | 
4 | B4 |  |  | binds
5 | B5 |  | binds | 
